Reference: article PMC6372478

Protein sequences, listed by entry. Tags and fused reporters are not part of them. Residues count along the entry.
UniProt P08238: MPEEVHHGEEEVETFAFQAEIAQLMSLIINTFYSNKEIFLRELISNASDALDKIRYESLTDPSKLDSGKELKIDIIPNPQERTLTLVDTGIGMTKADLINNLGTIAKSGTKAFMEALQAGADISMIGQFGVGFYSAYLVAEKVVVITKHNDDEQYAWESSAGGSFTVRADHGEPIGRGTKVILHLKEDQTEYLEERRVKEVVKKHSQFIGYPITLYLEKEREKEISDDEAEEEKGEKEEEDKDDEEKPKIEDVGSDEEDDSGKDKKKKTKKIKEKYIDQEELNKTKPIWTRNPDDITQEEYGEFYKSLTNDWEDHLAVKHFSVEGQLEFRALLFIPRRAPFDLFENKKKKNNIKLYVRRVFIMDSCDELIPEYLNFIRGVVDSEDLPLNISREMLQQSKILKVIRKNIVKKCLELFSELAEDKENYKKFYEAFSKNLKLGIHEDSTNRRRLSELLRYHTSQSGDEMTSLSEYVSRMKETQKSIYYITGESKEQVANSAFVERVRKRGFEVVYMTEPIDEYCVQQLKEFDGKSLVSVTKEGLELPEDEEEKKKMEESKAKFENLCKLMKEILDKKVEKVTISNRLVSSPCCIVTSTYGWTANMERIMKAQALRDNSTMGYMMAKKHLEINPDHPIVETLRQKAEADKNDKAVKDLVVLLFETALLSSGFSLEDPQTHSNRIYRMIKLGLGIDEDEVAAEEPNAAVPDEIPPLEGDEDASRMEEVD
UniProt O75197, residues 32-1615: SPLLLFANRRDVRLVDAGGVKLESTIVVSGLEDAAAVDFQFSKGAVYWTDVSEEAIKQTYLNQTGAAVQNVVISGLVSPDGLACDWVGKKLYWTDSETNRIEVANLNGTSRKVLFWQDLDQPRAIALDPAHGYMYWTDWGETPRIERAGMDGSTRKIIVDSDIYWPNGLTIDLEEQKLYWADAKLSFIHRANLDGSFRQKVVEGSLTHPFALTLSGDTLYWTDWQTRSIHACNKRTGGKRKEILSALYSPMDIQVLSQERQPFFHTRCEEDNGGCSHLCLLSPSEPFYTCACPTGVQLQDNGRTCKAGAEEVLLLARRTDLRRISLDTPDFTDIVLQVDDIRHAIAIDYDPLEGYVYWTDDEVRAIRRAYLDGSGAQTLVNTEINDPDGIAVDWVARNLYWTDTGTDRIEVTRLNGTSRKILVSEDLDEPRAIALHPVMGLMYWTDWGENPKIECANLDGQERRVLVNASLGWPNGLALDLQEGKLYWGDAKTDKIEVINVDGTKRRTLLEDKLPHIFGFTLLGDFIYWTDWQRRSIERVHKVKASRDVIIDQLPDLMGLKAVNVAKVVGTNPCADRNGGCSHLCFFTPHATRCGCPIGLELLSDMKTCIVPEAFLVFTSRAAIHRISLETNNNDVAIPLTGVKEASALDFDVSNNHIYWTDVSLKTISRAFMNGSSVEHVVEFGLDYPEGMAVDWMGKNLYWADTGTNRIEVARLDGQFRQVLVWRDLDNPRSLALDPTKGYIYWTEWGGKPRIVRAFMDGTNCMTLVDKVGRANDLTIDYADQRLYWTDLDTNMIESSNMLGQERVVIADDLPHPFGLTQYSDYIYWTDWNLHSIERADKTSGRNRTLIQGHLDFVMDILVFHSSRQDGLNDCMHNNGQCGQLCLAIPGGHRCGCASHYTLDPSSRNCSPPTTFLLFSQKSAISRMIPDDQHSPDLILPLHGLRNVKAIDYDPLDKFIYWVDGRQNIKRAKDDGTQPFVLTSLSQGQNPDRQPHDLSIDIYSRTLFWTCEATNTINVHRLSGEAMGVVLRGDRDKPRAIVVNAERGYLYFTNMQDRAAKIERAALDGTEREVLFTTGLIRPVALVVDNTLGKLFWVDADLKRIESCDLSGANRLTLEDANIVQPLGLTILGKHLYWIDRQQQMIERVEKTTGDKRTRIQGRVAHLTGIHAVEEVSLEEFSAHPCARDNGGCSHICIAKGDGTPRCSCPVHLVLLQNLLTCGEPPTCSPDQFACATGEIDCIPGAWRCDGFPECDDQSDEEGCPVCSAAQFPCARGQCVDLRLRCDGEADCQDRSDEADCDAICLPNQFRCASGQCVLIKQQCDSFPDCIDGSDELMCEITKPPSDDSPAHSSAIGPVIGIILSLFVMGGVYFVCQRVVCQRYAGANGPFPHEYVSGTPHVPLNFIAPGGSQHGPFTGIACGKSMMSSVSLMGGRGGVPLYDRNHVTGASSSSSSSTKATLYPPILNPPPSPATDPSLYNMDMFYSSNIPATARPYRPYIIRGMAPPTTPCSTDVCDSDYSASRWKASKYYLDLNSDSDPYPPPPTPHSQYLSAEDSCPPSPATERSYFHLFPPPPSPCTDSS

Biological target: Hsp90ab1 (human (endogenous in BGC823 and MKN45)) (UniProt P08238)
Assay: affinity purification with mass spectrometry; anti-Hsp90ab1 or IgG antibody incubated with BGC823 cell extracts, protein A/G beads; SDS-PAGE, silver staining, specific bands excised, LC-MS/MS

binding: binds
Substance: low-density lipoprotein receptor-related protein 5 (from UniProt O75197 32-1615)

These are yes or no findings as the source states them, for the method shown. Binding seen in cells or lysates may run through a third protein. A yes stands for co-enrichment or nearness to the bait. Other partners may have been found.
